Laboratory results as given in patent publication US20260109774A1 (JUNO THERAPEUTICS, published 2026).
Results are given in words; binding and its absence hold for the method and conditions named. Some binding calls cover weakened binding; strength is not graded here.

Amino acid sequences for entries named in this document (tags omitted). A change or cut given only in a name is not applied to a line headed by its entry.
UniProt Q02223: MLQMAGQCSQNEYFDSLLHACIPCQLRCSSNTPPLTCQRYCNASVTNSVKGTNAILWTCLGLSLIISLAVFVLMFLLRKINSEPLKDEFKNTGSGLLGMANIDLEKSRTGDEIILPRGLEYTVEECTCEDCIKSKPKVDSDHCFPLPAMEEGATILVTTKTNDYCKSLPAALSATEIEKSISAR

Tests used:
[1] = biological target: BCMA-Fc (soluble human BCMA fused at its C-terminus to an Fc region of IgG) (human) (UniProt Q02223); assay: flow cytometry of transduced primary T cells (CD4 and CD8 gates, Non-SSE and O/SSE constructs) stained with recombinant BCMA-Fc (rBCMA) and for the surrogate marker
[2] = biological target: BCMA-Fc (soluble human BCMA fused at its C-terminus to an Fc region of IgG) (human) (UniProt Q02223); assay: flow cytometry of transduced T cells stained with recombinant BCMA-Fc

B1: BCMA-25-LS CAR (other)
chain: EVQLVQSGGGLVQPGRSLRLSCTASGFTFGDYAMSWFRQAPGKGLEWVGFIRSKAYGGTTEYAASVKGRFTISRDDSKSIAYLQMNSLKTEDTAVYYCAAWSAPTDYWGQGTLVTVSSGGGGSGGGGSGGGGSDIQMTQSPAFLSASVGDRVTVTCRASQGISNYLAWYQQKPGNAPRLLIYSASTLQSGVPSRFRGTGYGTEFSLTIDSLQPEDFATYYCQQSYTSRQTFGPGTRLDIKESKYGPPCPPCPAPPVAGPSVFLFPPKPKDTLMISRTPEVTCVVVDVSQEDPEVQFNWYVDGVEVHNAKTKPREEQFQSTYRVVSVLTVLHQDWLNGKEYKCKVSNKGLPSSIEKTISKAKGQPREPQVYTLPPSQEEMTKNQVSLTCLVKGFYPSDIAVEWESNGQPENNYKTTPPVLDSDGSFFLYSRLTVDKSRWQEGNVFSCSVMHEALHNHYTQKSLSLSLGKMFWVLVVVGGVLACYSLLVTVAFIIFWVKRGRKKLLYIFKQPFMRPVQTTQEEDGCSCRFPEEEEGGCELRVKFSRSADAPAYQQGQNQLYNELNLGRREEYDVLDKRRGRDPEMGGKPRRKNPQEGLYNELQKDKMAEAYSEIGMKGERRRGKGHDGLYQGLSTATKDTYDALHMQALPPR
notes: Chimeric antigen receptor; signal peptide left out; also called BCMA-25-LS-O/SSE CAR; BCMA-25-L CAR
In the case of B1, the binding [1] is reported as “binds”.

B2: BCMA-55-LS CAR (other)
chain: QSALTQPASVSASPGQSIAISCTGTSSDVGWYQQHPGKAPKLMIYEDSKRPSGVSNRFSGSKSGNTASLTISGLQAEDEADYYCSSNTRSSTLVFGGGTKLTVLGSRGGGGSGGGGSGGGGSLEMAEVQLVQSGAEMKKPGASLKLSCKASGYTFIDYYVYWMRQAPGQGLESMGWINPNSGGTNYAQKFQGRVTMTRDTSISTAYMELSRLRSDDTAMYYCARSQRDGYMDYWGQGTLVTVSSESKYGPPCPPCPAPPVAGPSVFLFPPKPKDTLMISRTPEVTCVVVDVSQEDPEVQFNWYVDGVEVHNAKTKPREEQFQSTYRVVSVLTVLHQDWLNGKEYKCKVSNKGLPSSIEKTISKAKGQPREPQVYTLPPSQEEMTKNQVSLTCLVKGFYPSDIAVEWESNGQPENNYKTTPPVLDSDGSFFLYSRLTVDKSRWQEGNVFSCSVMHEALHNHYTQKSLSLSLGKMFWVLVVVGGVLACYSLLVTVAFIIFWVKRGRKKLLYIFKQPFMRPVQTTQEEDGCSCRFPEEEEGGCELRVKFSRSADAPAYQQGQNQLYNELNLGRREEYDVLDKRRGRDPEMGGKPRRKNPQEGLYNELQKDKMAEAYSEIGMKGERRRGKGHDGLYQGLSTATKDTYDALHMQALPPR
notes: Chimeric antigen receptor on T cells or Jurkat cells; also called BCMA-55-LS-O/SSE CAR; BCMA-55-LS CAR O/SSE
B2 was tested, and the binding [2] was “binds” and the binding [1] was “binds”.
